For at least one compound, name, drawing or mass did not settle the structure.
How the values were obtained:
[1] = tested on: phosphorylated glucocorticoid receptor (GR-p); assay: Western blot of phosphorylated glucocorticoid receptor in C2C12 myoblasts (FIG. 1); format: cell-based, mouse; conditions: 1 μM dexamethasone alone for 2 hours and 6 hours, vs untreated control
[2] = tested on: phosphorylated glucocorticoid receptor (glucocorticoid receptor-S211-p: GR-p); assay: Factors of atrophy: western blot of GR-p in C2C12 cells (FIG. 4); format: cell-based, mouse; conditions: C2C12, 1 μM dexamethasone alone, 2 hours, vs control

How did the “amount of the phosphorylated glucocorticoid receptor GR-p” value [1] turn out when C[C@@H]1C[C@H]2[C@@H]3CCC4=CC(=O)C=C[C@]4(C)[C@@]3(F)[C@@H](O)C[C@]2(C)[C@@]1(O)C(=O)CO [dexamethasone] was run?
Its value is “increased”.

And the “amount of the GR-p” value [2]?
The value was “increased”.
